Reference: PubChem BioAssay AID1487 (National Center for Advancing Translational Sciences (NCATS), 2009)
In all, about 200,000 compounds went through this assay and about 25 (0.01%) were called active. The inconclusive results got no clear call from the source; some entries with a clear call stand among them for comparison. The call rests on the fitted dose curve; in most records, active means well fitted inhibition curve with a large enough effect in the signal ratio, with a control signal flat (not every such curve was filed as active); inconclusive means small, poorly fitted or top-dose-only effect, or effect the other way, or a change in a side signal; inactive means flat fitted curve, though single readings scatter; the % refers to the signal ratio. Potencies of inconclusive entries are doubtful fits and often do not repeat.

Test: qHTS Assay for Modulators of Lamin A Splicing
Settings: HeLa LMNA splicing GFP/RFP minigene ratio, 48 h; ratio change, negative = inhibition: at 46.1 µM (top of the series) unless noted
Procedure, shortened: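 S3 HeLa cells stably expressing lamin A-EGFP splicing minigene plus DsRed2, 600 cells/well, 48 h compound exposure at 37C. Laser-scanning cytometry; analysed as GFP (500-530 nm)/RFP (575-640 nm) total intensity ratio; 0.5% DMSO vehicle.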
On the % scale 0 is the no-effect control and ±100 the full control effect; potency means the concentration at half of the fitted maximal effect.

| SMILES | ratio change, negative = inhibition | Potency |
| --- | --- | --- |
| Cc1ccc(C(C)n2cc(C(=O)NCc3cccnc3)nn2)cc1 (stereo not given) | inactive: 4.39% |  |
| CNC(=S)N/N=C/c1cc(C)n(-c2ccc(Cl)c(Cl)c2)c1C |  | inconclusive: 35.5 µM [fluorescent, single point] |
| CC(=O)c1cccc(NC(=O)C(OC(=O)c2ccccc2NS(=O)(=O)c2cccs2)c2ccccc2)c1 (stereo not given) | inactive: -16.7% |  |
| O=C(Cn1nc2ccccc2n1)N/N=C/c1cc(Cl)cc([N+](=O)[O-])c1O | inconclusive: -17.1% [at 46 µM] |  |
| Cc1ccc(Cn2ncc3c(N4CCN(CC#N)CC4)ncnc32)cc1 | inconclusive: -19.4% [at 46 µM] |  |
| COC(=O)Cc1nnc(NC(=O)c2ccccc2)s1 | inactive: -3.68% |  |
| CCOc1ccccc1NS(=O)(=O)c1ccc(N2CCCCS2(=O)=O)cc1 | inconclusive: 13.2% [at 46 µM] |  |
| Cc1nc(-c2ccc(F)cc2)sc1CCNC(=O)c1cccs1 | inconclusive: 41.3% [at 46 µM] |  |
| N=C1C(c2ccccc2)=C(O)CN1c1cccc2ccccc12 | inconclusive: -36% [at 46 µM] |  |
| CC(=O)Nc1ccc(NC(=O)/C=C/c2ccc3c(c2)OCO3)cc1 | inconclusive: 23.5% [at 46 µM] |  |
| Cc1ccc(C)c(NC(=O)Cn2c(SCC(=O)NCc3ccccc3)nc3ccccc32)c1 | inconclusive: -7.79% [at 46 µM] |  |
| O=c1[nH]c(SCC2CCCCO2)nc2ccccc12 (stereo not given) | inconclusive: 20.8% |  |
| CCOc1ccccc1N1CCN(C2=C(NS(=O)(=O)c3cccs3)C(=O)c3ccccc3C2=O)CC1 | inactive: -7.23% |  |
| CCC(=O)N1CCc2cc(CNS(=O)(=O)c3ccc(CC(C)C)cc3)ccc21 | inconclusive: 3.69% [at 46 µM] |  |
| CC(=O)N1CCCc2cc(S(=O)(=O)Nc3ccc(C)cc3C)ccc21 | inconclusive: -16.4% |  |
| COc1ccc(C(=O)NCC(=O)OCC(=O)NCCC2=CCCCC2)cc1 | inactive: -2.17% [at 46 µM] |  |
| Cn1cnc([N+](=O)[O-])c1S(=O)(=O)c1ccc(Cl)cc1 |  | inconclusive: 17.8 µM [inhibitor, single point] |
| Fc1ccccc1NC(=S)Nc1cccc2cnccc12 | inactive: -4.79% [at 46 µM] |  |
| CC1CCCCC1NC(=O)/C(C#N)=C/C=C/c1ccccc1[N+](=O)[O-] (stereo not given) |  | inconclusive: 10 µM [inhibitor, partial curve] |
| CN1CCc2cc3c(c4c2C1CC41CCC(=NO)CC1)OCO3 (stereo not given) | inconclusive: 6.72% |  |

| SMILES | ratio change, negative = inhibition | Potency |
| --- | --- | --- |
| CCc1cccc(C)c1NC(=O)CSc1nc2ccccc2nc1Cc1ccccc1 | inconclusive: -37.1% [at 46 µM] |  |
| COc1ccc(NS(=O)(=O)c2ccc(NC(=O)c3ccccc3Br)cc2)nn1 | inconclusive: 24.5% [at 46 µM] |  |
| CC(C)Cn1c(N)c(C(=O)COC(=O)c2cc(C(F)(F)F)nc3c(C(F)(F)F)cccc23)c(=O)n(C)c1=O | inactive: 3.44% |  |
| CN(C)c1ccc(-c2nnc(SCC3CCCO3)n2C)cc1 (stereo not given) | inconclusive: -10.6% [at 46 µM] |  |
| COC(=O)C(C)N1C(=O)S/C(=C\c2cc(C)n(-c3ccccn3)c2C)C1=O (stereo not given) | inactive: -8.86% |  |
| O=C(CCN1CCOCC1)N/N=C/c1cc(Br)cc(Br)c1O |  | inconclusive: 3.16 µM [inhibitor, single point] |
| Cc1cccc(C)c1NC(=O)CSc1nnc(-c2ccco2)c(-c2ccco2)n1 | inactive: -2.09% [at 0.0737 µM] |  |
| COc1ccccc1-c1nccc(NCc2ccccc2)n1 | inconclusive: -26.8% |  |
| Cc1cccc(C)c1-n1c(C)nn(CC2CC2)c1=O | inconclusive: 25.8% [at 46 µM] |  |
| O=C(COC(=O)c1ccccc1C(=O)c1ccc(Cl)cc1)NCCc1ccccc1 |  | inconclusive: 35.5 µM [falling, single point] |
| CC(=Nc1ccc(C)cc1C)c1sc2ccccc2c1O | inconclusive: 11% [at 46 µM] |  |
| Cc1ccc(N(CC(C)C)S(=O)(=O)c2nnc(NC(=O)C(C)C)s2)cc1 | inconclusive: -19.6% [at 46 µM] |  |
| COc1ccccc1CNC(=O)COCc1cc(-c2cccs2)on1 | inactive: -16.4% [at 46 µM] |  |
| Cc1ccc2ncc3c(-c4ccc(F)cc4)nn(CC(=O)Nc4ccccc4C)c3c2c1 | inactive: 1.71% [at 46 µM] |  |
| O=C(C(F)C(F)(F)F)N1CCN(c2ccccc2)CC1 (stereo not given) | inactive: 0.128% |  |
| Cc1ccc2cccc(OCC(=O)Nc3ccc4c(c3)OCO4)c2n1 | inconclusive: -19.5% [at 46 µM] |  |
| COc1ccccc1N1CCN(C/C(O)=C(\C#N)c2nc(-c3ccccc3)cs2)CC1 | inactive: 9.82% |  |
| CSc1ccc(CCNC(=O)CCCn2c(=O)c3cccn3c3ccccc32)cc1 |  | inconclusive: 35.5 µM [cytotoxic, single point] |
| O=Cc1ccc(N2CCCC2)o1 | inconclusive: 13.8% [at 46 µM] |  |
| Cc1cc(NC(=O)COC(=O)c2ccco2)no1 | inconclusive: 21.3% [at 46 µM] |  |

Molecules from the list above that have a CF3 group, in the order listed:

| SMILES | ratio change, negative = inhibition | Potency |
| --- | --- | --- |
| CC(C)Cn1c(N)c(C(=O)COC(=O)c2cc(C(F)(F)F)nc3c(C(F)(F)F)cccc23)c(=O)n(C)c1=O | inactive: 3.44% |  |
| O=C(C(F)C(F)(F)F)N1CCN(c2ccccc2)CC1 (stereo not given) | inactive: 0.128% |  |
